Results on one compound are retold here after patent publication US5750566A, “Synthetic excitatory amino acids” (Eli Lilly and Company, priority 1995, dated 1998).

The assay relates to Long Evans rats. The assay is described as follows: Auditory startle after diazepam withdrawal. It counts as in vivo, rat (Long Evans). As to conditions: first four days after cessation, vs control rats receiving vehicle; diazepam 10 mg/kg/day s.c.

As to `CN1C(=O)CN=C(c2ccccc2)c2cc(Cl)ccc21` [Diazepam], the “auditory startle responding following cessation of chronic diazepam exposure” value is on record as “significantly increased”.
